Data as given in patent US6833355.
No constants are given. Whether binding was seen depends on the method and setting. For part of these data: Binding seen in cells or lysates may run through a third protein. Some entries that bind do so weakly or less than the wild type.

Amino acid sequences for entries named in this document (tags omitted). A change or cut given only in a name is not applied to a line headed by its entry. Chains listed by the source or under a name are the forms on record and can include a tag or linker. Residues count along the entry.
UniProt P22626: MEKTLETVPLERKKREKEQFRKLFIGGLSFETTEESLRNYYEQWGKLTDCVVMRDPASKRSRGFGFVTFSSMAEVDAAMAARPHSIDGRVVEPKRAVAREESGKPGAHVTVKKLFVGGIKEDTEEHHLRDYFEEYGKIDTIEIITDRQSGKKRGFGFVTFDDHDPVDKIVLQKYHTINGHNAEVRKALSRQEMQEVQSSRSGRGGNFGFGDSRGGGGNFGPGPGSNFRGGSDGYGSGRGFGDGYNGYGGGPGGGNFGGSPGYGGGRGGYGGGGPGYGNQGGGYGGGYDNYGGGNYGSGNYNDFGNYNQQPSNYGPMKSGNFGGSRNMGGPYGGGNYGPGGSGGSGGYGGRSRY
SET protein (39 kDa and 80 kDa bands of Jurkat nuclear extract) (Q01105, form named): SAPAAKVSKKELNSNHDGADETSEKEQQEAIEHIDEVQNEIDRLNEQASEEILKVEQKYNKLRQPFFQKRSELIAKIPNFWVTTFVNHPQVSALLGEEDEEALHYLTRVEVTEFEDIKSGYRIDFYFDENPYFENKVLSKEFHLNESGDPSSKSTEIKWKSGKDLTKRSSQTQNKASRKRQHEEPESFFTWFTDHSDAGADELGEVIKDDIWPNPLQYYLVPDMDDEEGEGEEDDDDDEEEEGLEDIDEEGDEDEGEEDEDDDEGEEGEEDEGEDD
UniProt P06748: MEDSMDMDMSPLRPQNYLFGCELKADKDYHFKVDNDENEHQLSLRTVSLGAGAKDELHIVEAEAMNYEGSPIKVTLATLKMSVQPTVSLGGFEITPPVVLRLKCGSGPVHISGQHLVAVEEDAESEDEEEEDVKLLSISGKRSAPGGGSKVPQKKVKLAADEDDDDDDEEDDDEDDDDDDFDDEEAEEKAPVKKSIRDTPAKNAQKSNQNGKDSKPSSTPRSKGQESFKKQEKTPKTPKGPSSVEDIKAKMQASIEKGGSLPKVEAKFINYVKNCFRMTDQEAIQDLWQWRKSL
NH2-terminal fragment of NPM, in vitro translated and 35S-methionine-labelled: residues 1-147 of P06748
UniProt P50470: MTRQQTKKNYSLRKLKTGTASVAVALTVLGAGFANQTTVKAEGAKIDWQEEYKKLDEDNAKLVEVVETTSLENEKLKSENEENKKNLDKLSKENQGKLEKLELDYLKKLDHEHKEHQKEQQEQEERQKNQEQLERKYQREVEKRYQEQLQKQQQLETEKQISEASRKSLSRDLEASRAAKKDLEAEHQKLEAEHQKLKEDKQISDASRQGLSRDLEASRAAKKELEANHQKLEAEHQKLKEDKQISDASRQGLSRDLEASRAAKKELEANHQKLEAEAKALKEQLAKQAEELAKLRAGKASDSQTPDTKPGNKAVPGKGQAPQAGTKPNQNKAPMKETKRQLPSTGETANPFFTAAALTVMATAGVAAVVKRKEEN

Columns and labels:
[1] = target: heterogeneous nuclear ribonuclear protein (hnRNP) A2/B1 (42 kDa band of Jurkat nuclear extract) (human) (UniProt P22626); experiment: Jurkat nuclear extract eluted from protein H-Sepharose and blotted with 125I-protein H; the 42 kDa band was identified as hnRNP A2/B1
[2] = target: SET protein (39 kDa and 80 kDa bands of Jurkat nuclear extract) (human) (UniProt Q01105); experiment: Summary of the Example
[3] = target: heterogeneous nuclear ribonuclear protein (hnRNP) A2/B1 (42 kDa band of Jurkat nuclear extract) (human) (UniProt P22626); experiment: Summary of the Example
[4] = target: NH2-terminal fragment of NPM, in vitro translated and 35S-methionine-labelled (human) (UniProt P06748); experiment: Affinity purification of 35S-labelled in vitro translated peptides on protein H-Sepharose
[5] = target: nucleophosmin in nuclear extracts of Jurkat cells incubated with protein H (human) (UniProt P06748); experiment: Co-immunoprecipitation from nuclear extracts with anti-protein H F(ab')2-Sepharose, then Western blot with anti-NPM
[6] = target: SET protein (39 kDa and 80 kDa bands of Jurkat nuclear extract) (human) (UniProt Q01105); experiment: Jurkat nuclear extract eluted from protein H-Sepharose and blotted with 125I-protein H; the 39 and 80 kDa bands were identified as SET

Measured: binding

protein H of Streptococcus pyogenes, COOH-terminally truncated fragment expressed by and purified from E. coli (305 amino acids) (from UniProt P50470 42-346)
binds: all assays above
